{
  "source": "patent US8084457B2",
  "about": "“Pharmaceutically active 4,6-disubstituted aminopyrimidine derivatives as modulators of protein kinases” (Lead Discovery Center GmbH, priority 2003, dated 2011)",
  "system": "PM1 cells",
  "assay": "Growth assay using Alamar Blue",
  "type": "cell-based",
  "conditions": "growth rates compared to rates of DMSO treated cells",
  "method": "Growth Assay Using Alamar Blue™:\nPM1 cells were seeded in 12-well plates at a density of 1.5×10^5 per well with RPMI 1640 containing 10% FCS (fetal calf serum), 1% L-Glutamine and 1% Na-Pyruvate (Sigma). Cells were incubated with compound for 2-3 days (37° C., 6% CO2) followed by subsequent splitting and renewing of compound-containing medium. At each of these time points an aliquot of cells served as data point for relative growth (given in % of the DMSO control [=100%]). The cell number was determined by addition of 10 μL Alamar Blue™ (Biozol) to 100 μL cell aliquots following the manufacturer's instructions.",
  "note": "Some entries share one result that the patent states for a list of compounds. At least one compound was matched to its structure with a doubt left.",
  "data": [
    {"smiles": "COc1ccc(-c2cc(Nc3ccc(C)c(NS(C)(=O)=O)c3)ncn2)cc1", "note": "[Compound 3]", "values": [
      {"measurement": "Growth after 7 days [% at 1 μM]", "value": "51-100%"}
    ]}
  ]
}
